# Data source: PubChem BioAssay AID493246 (Drosophila RNAi Screening Center, 2011)
# Aim: 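Genes fly cells need to grow and stay alive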 (primary screen)
# System: Drosophila Kc and S2R+ cells
# Reagents: long dsRNA against Drosophila genes
# Detection: 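Cell number per well after knock-down, printed as raw plate values; calls were based on per-plate z-scores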
# Direction: Kc cell number and S2R+ cell number: higher = more cells remaining
# Call rule: 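Counted as a hit if cell number falls by a z-score of at least 3 within its plate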
# The screen tested about 21,000 reagents; shown is an unselected part of those that have a named target and a result. In the full data, 429 (2%) are marked active. 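Values are raw and not normalised between plates; calls rest on per-plate z-scores that were not deposited.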 A plus sign joins genes that one reagent is predicted to hit. Not stated in the record: the amount of reagent, the time to read-out.
Gene,dsRNA,"Kc cell number, rep 1","Kc cell number, rep 2","S2R+ cell number, rep 1","S2R+ cell number, rep 2",Call
CG31265,DRSC15745,1.28e6,1.34e6,1.14e6,1.24e6,inactive
smid (smallminded),DRSC11398,1.35e6,1.27e6,1.15e6,1.19e6,inactive
CG33160,DRSC08197,1.46e6,1.27e6,8.88e5,1.09e6,inactive
NaPi-T (Na[+]-dependent inorganic phosphate cotransporter),DRSC07476,1.48e6,1.55e6,1.32e6,1.35e6,inactive
RunxB (Runt related B),DRSC20395,1.23e6,1.38e6,1.06e6,1.18e6,inactive
RunxB (Runt related B),DRSC20525,1.51e6,1.54e6,1.02e6,1.16e6,inactive
RunxB (Runt related B),DRSC20526,3.51e5,4.05e5,4.28e5,5.20e5,active
"Brca2 (BRCA2, DNA repair associated)",DRSC04219,1.47e6,1.52e6,1.30e6,1.40e6,inactive
"Brca2 (BRCA2, DNA repair associated)",DRSC04220,1.56e6,1.60e6,1.34e6,1.51e6,inactive
blot (bloated tubules),DRSC09485,1.41e6,1.54e6,1.09e6,1.37e6,inactive
blot (bloated tubules),DRSC11328,1.41e6,1.49e6,9.01e5,1.01e6,inactive
IscU (Iron-sulfur cluster assembly enzyme),DRSC16572,1.16e6,1.30e6,6.41e5,7.61e5,active
Argl + CG9515,DRSC03243,1.47e6,1.56e6,1.03e6,1.05e6,inactive
Argl + CG9515,DRSC03245,1.54e6,1.59e6,1.16e6,1.29e6,inactive
CG4716,DRSC06884,1.40e6,1.48e6,1.17e6,1.18e6,inactive
Lsp1gamma (Larval serum protein 1 gamma),DRSC08672,1.37e6,1.51e6,1.21e6,1.24e6,inactive
CG2681,DRSC18464,5.54e5,,8.35e5,,inactive
"Nsun2 (NOP2-Sun domain family, member 2)",DRSC18662,6.08e5,,8.81e5,,inactive
CG8060,DRSC07064,1.37e6,1.44e6,1.28e6,1.29e6,inactive
Nup214 (Nucleoporin 214kD),DRSC04421,1.40e6,1.56e6,8.75e5,1.04e6,inactive
CNMa (CNMamide),DRSC08405,1.46e6,1.41e6,1.07e6,1.32e6,inactive
Stacl + CG8179 (retired record),DRSC07091,3.26e5,4.72e5,4.53e5,5.45e5,active
CG15756,DRSC19721,1.67e6,1.57e6,1.07e6,1.23e6,inactive
Cpr97Eb (Cuticular protein 97Eb),DRSC15123,1.39e6,1.45e6,1.02e6,1.03e6,inactive
5PtaseI (Inositol polyphosphate-5-phosphatase type I),DRSC16269,1.68e6,1.71e6,1.37e6,1.41e6,inactive
CG11327,DRSC02146,1.46e6,1.36e6,1.13e6,1.26e6,inactive
grass (Gram-positive Specific Serine protease),DRSC15911,1.50e6,1.52e6,1.07e6,1.15e6,inactive
Hip14 (Huntingtin-interacting protein 14),DRSC10570,1.71e6,1.73e6,1.52e6,1.51e6,inactive
sut2 (sugar transporter 2),DRSC07701,1.35e6,1.48e6,1.06e6,1.16e6,inactive
Hsc70-3 (Heat shock protein 70 cognate 3),DRSC20253,1.06e6,1.07e6,6.80e5,7.52e5,inactive
CG11600,DRSC14332,1.68e6,1.82e6,1.31e6,1.41e6,inactive
Rbbp5 + CG6434 (retired record),DRSC10635,1.64e6,1.76e6,1.23e6,1.36e6,inactive
CG12535,DRSC17838,1.60e6,1.52e6,1.11e6,1.27e6,inactive
Acp36DE (Accessory gland protein 36DE),DRSC01860,1.69e6,1.60e6,1.35e6,1.52e6,inactive
msk (moleskin),DRSC11340,1.45e6,1.50e6,1.26e6,1.27e6,inactive
boss (bride of sevenless),DRSC16916,1.40e6,1.43e6,9.65e5,1.04e6,inactive
dtn (detonator),DRSC17939,1.52e6,1.59e6,1.16e6,1.30e6,inactive
Ugt36A1 + CG15418,DRSC00432,1.91e6,1.80e6,1.22e6,1.33e6,inactive
CG9396,DRSC16487,1.39e6,1.38e6,1.24e6,1.31e6,inactive
tw (twisted),DRSC18537,5.34e5,,8.86e5,,inactive
CG31077,DRSC13805,1.59e6,1.68e6,9.06e5,9.14e5,inactive
CG3598,DRSC18471,1.50e6,1.52e6,1.05e6,1.14e6,inactive
"IP3K2 (Inositol 1,4,5-triphosphate kinase 2)",DRSC19500,1.54e6,1.47e6,1.06e6,1.13e6,inactive
"IP3K2 (Inositol 1,4,5-triphosphate kinase 2)",DRSC19747,1.63e6,1.57e6,1.08e6,1.21e6,inactive
CG10481,DRSC02063,1.60e6,1.64e6,1.24e6,2.60e5,inactive
CG7333,DRSC16229,1.34e6,1.52e6,1.01e6,9.73e5,inactive
Vps33B (Vacuolar protein sorting 33B),DRSC15722,5.07e5,,8.15e5,,inactive
CG14411,DRSC19597,1.51e6,1.49e6,1.18e6,1.22e6,inactive
CG8289,DRSC20101,1.45e6,1.47e6,1.00e6,1.14e6,inactive
CG33679,DRSC01436,1.68e6,1.82e6,1.02e6,1.30e6,inactive
coil (coilin),DRSC07242,1.31e6,1.34e6,1.14e6,1.21e6,inactive
CG12814,DRSC14552,1.60e6,1.66e6,1.28e6,1.38e6,inactive
CG12814,DRSC14553,1.66e6,1.61e6,1.22e6,1.26e6,inactive
Best2 (Bestrophin 2),DRSC09712,1.29e6,1.40e6,1.10e6,1.17e6,inactive
Hmu (Hemomucin),DRSC16705,1.54e6,1.58e6,1.04e6,1.19e6,inactive
Gld (Glucose dehydrogenase),DRSC12595,1.64e6,1.81e6,1.28e6,1.34e6,inactive
CG13326,DRSC06363,1.30e6,1.41e6,1.03e6,1.06e6,inactive
srp (serpent),DRSC13125,1.40e6,1.66e6,1.07e6,1.15e6,inactive
srp (serpent),DRSC17068,5.29e5,5.36e5,6.45e5,7.72e5,active
